# Source: PubChem BioAssay AID540350 (National Center for Advancing Translational Sciences (NCATS), 2011)
# The inconclusive results got no clear call from the source; some entries with a clear call stand among them for comparison. A potency beside an inconclusive call is a rough fit, not a confirmed value. The source made the active and inactive calls. Calls follow the shape of the dose curve; as a rule, active = well fitted inhibition curve with a large enough effect; inconclusive = small, poorly fitted or top-dose-only effect; inactive = no such curve, though single readings can be large or run the other way.
# Biological target: 4'-phosphopantetheinyl transferase Sfp (Bacillus subtilis (strain 168)) (UniProt P39135)
# Test: qHTS Assay for Inhibitos of Bacillus subtilis Sfp phosphopantetheinyl transferase (PPTase): Chemistry Optimization Followup
# Conditions: purified Sfp PPTase enzyme activity; series mostly up to 114 µM
# From the text: The covalent attachment of a phosphopantetheinyl (4'-PP) arm to a variety of synthases and other proteins is a key posttranslational protein modification. The 4'-PP is installed on the proteins post-translationally from coenzyme A (CoA) on a conserved serine residue by action of phosphopantetheinyl transferase (PPTase) enzymes. Phosphopantetheinylation is essential for synthase activity, and removal of the PPTase gene precludes natural product synthesis in microorganisms, or in the case of fatty acid biosynthesis, renders the organism unviable. PPTase enzymes belong to a distinct structural superfamily. Within bacteria, these enzymes are grouped into two classes based upon primary structure, the AcpS-Type and Sfp-Type PPTases.
# Sfp-type PPTases, corresponding to an activator of surfactin production in Bacillus subtilis, are responsible for modifying type I polyketide and nonribosomal peptide synthases of prokaryotes. Sfp-type PPTases are responsible for the activation of a variety of pathogen-associated virulence factors. Among these compounds are toxins such as mycolactone from Mycobacterium ulcerans, siderophores such as vibriobactin from Vibrio cholerae or mycobactin from Mycobacterium tuberculosis, as well as the mycolic acids which form the waxy cell wall of Mycobacteria. The biosyntheses of these natural products are considered attractive targets for drug design.
# In search of small molecule Sfp-PPTase inhibitors, a fluorescence quenching assay was developed for detection of Bacillus subtilis Sfp-PPTase enzymatic activity in a miniaturized high-throughput format. The consensus ybbr acceptor peptide […] was N-terminally labeled with Black Hole Quencher-2 (BHQ-2) and used in combination with rhodamine-labeled coenzyme A as a co-substrate.
# Inhibition of Sfp-PPTase was detected by recording the fluorescence intensity change over a 30-minute reaction period at a 525 nm excitation and 598 nm emission. Reagents were supplied by Michael Burkart and Timothy Foley, University of California at San Diego.
# NIH Chemical Genomics Center [NCGC]
# NIH Molecular Libraries Probe Centers Network [MLPCN]
# Assay Submitter (PI): Michael Burkart, University of California, San Diego
# 3 uL of Sfp-PPTase enzyme (final concentration 15 nM) and 1 uL of substrate mixture (final concentration for rhodamine-CoA and BHQ-2-YbbR 5 uM and 12.5 uM, respectively) dispensed in columns 1, 2, 5 - 48. Columns 1 and 2 used to generate neutral control (uninhibited reaction)
# Three uL of reagents, consisting of buffer (in columns 3 and 4 as negative control) and Sfp-PPTase (in columns 1, 2, 5 - 48) were dispensed into 1,536-well Greiner black solid bottom plate. Compounds (23 nL) were transferred via Kalypsys pintool equipped with 1,536-pin array. The plate was incubated for 15 min at room temperature, followed by the addition of 1 uL substrate to start the reaction. The plate was then centrifuged at 1000 rpm for 15 seconds, and the fluorescence intensity recorded on a ViewLux High-throughput CCD imager (Perkin-Elmer) using standard BODIPY optics (525 nm excitation and 598 nm emission). The plate was then incubated for 30 minutes, and a second read on the ViewLux was performed. The fluorescence intensity difference over the 30-minute period was used to calculate the respective reaction rate for each well.
row,Compound,Potency
1,Cc1cc(C)nc(NC(=S)N2CCN(c3nncs3)CC2)c1,active: 13.2 µM
2,Cc1ccnc(NC(=S)N[C@H]2CCN(c3cccc(C(F)(F)F)c3)C2)c1,inactive
3,Cc1cc(C)nc(NC(=S)N2CCN(c3ccc(N4CCCC4)nn3)CC2)c1,"inconclusive: 8.35 µM [inhibitor, full curve]"
4,Cc1ccnc(NC(=S)N2CCN(c3ccc(Cl)c(Cl)c3)CC2)c1,active: 1.18 µM
5,Cc1ccnc(NC(=S)N2CCC(Nc3cccc(C(F)(F)F)c3)CC2)c1,active: 1.87 µM
6,Cc1ccnc(N=C(N)N2CCN(c3cccc(C(F)(F)F)c3)CC2)c1,"inconclusive: 52.7 µM [inhibitor, partial curve]"
7,Cc1ccnc(NC(=S)NC2CN(c3cccc(C(F)(F)F)c3)C2)c1,"inconclusive: 33.2 µM [inhibitor, partial curve]"
8,FC(F)(F)c1cccc(N2CCN(C(=S)Nc3cccnc3)CC2)c1,"inconclusive: 41.8 µM [inhibitor, partial curve]"
9,Cc1ccnc(NC(=S)N2CCN(c3cccc(C(F)(F)F)c3)C2)c1,inactive
10,COc1cccc(NC(=S)N2CCN(c3cccc(Cl)c3Cl)CC2)n1,"inconclusive: 18.7 µM [inhibitor, full curve]"
11,Cc1ccnc(NC(=S)NCCN(C)c2cccc(C(F)(F)F)c2)c1,"inconclusive: 14.8 µM [inhibitor, full curve]"
12,Cc1cncc(NC(=S)N2CCN(c3cccc(C(F)(F)F)c3)CC2)c1,"inconclusive: 46.9 µM [inhibitor, partial curve]"
13,Cc1ccnc(N(C)C(=S)N2CCN(c3cccc(C(F)(F)F)c3)CC2)c1,"inconclusive: 46.9 µM [inhibitor, partial curve]"
14,CC(=O)c1ccc(N2CCN(C(=S)Nc3cc(C)ccn3)CC2)cc1,active: 5.91 µM
15,Cc1ccnc(NC(=O)N2CCN(c3cccc(C(F)(F)F)c3)CC2)c1,inactive
16,Cc1ccnc(NC(=S)N[C@@H]2CCN(c3cccc(C(F)(F)F)c3)C2)c1,"inconclusive: 16.2 µM [inhibitor, partial curve]"
17,Cc1ccnc(NC(=S)N2CCN(c3ccc(N)cc3)CC2)c1,"inconclusive: 37.3 µM [inhibitor, partial curve]"
18,Cc1ccnc(NC(=S)NC2CCN(c3cccc(C(F)(F)F)c3)CC2)c1,"inconclusive: 37.3 µM [inhibitor, partial curve]"
19,CN(C)c1ccc2nc(NC(=S)N3CCN(c4cccc(C(F)(F)F)c4)CC3)sc2c1,"inconclusive: 46.9 µM [inhibitor, partial curve]"
20,COc1ccc(NC(=S)N2CCN(c3cccc(C(F)(F)F)c3)CC2)nc1,"inconclusive: 10.5 µM [inhibitor, full curve]"

# Quoted at random: 2 entries already listed.
row,Compound,Potency
10,COc1cccc(NC(=S)N2CCN(c3cccc(Cl)c3Cl)CC2)n1,"inconclusive: 18.7 µM [inhibitor, full curve]"
7,Cc1ccnc(NC(=S)NC2CN(c3cccc(C(F)(F)F)c3)C2)c1,"inconclusive: 33.2 µM [inhibitor, partial curve]"

# The listing continues:

row,Compound,Potency
1,Cc1cc(C)nc(/N=C(\NC#N)N2CCN(c3cccc(C(F)(F)F)c3)CC2)c1,"inconclusive: 29.6 µM [inhibitor, partial curve]"
2,S=C(Nc1cc(Cl)ccn1)N1CCN(c2ccc3ccccc3n2)CC1,"inconclusive: 37.3 µM [inhibitor, partial curve]"
3,COc1cccc(NC(=S)N2CCN(c3cccc(C(F)(F)F)n3)CC2)n1,"inconclusive: 13.2 µM [inhibitor, partial curve]"
4,FC(F)(F)c1cccc(N2CCN(C(=S)Nc3ncnc4ccccc34)CC2)c1,"inconclusive: 23.5 µM [inhibitor, full curve]"
5,Cc1cc(C)nc(NC(=S)N2CCN(Cc3c(F)cccc3Cl)CC2)c1,active: 8.35 µM
6,Cc1cc(C)nc(NC(=S)N2CCN(Cc3cccc(C(F)(F)F)c3)CC2)c1,active: 6.63 µM
7,Cc1ccc(N2CCN(C(=S)Nc3cc(C)ccn3)CC2)cc1,active: 6.63 µM
8,COc1cccc(NC(=S)N2CCN(c3ccc(C(F)(F)F)cc3[N+](=O)[O-])CC2)n1,"inconclusive: 9.37 µM [inhibitor, full curve]"
9,FC(F)(F)c1cccc(N2CCN(C(=S)Nc3cnccn3)CC2)c1,"inconclusive: 52.7 µM [inhibitor, partial curve]"
10,COc1ccnc(NC(=S)N2CCN(c3cccc(C(F)(F)F)n3)CC2)c1,active: 46.9 µM
11,Cc1cc(C)nc(NC(=S)N2CCN(c3cc(C(F)(F)F)cc(C(F)(F)F)c3)CC2)c1,active: 3.32 µM
12,Cc1cc(C)nc(Nc2nnc(N3CCN(c4cccc(C(F)(F)F)c4)CC3)s2)c1,"inconclusive: 46.9 µM [inhibitor, partial curve]"
13,COc1cccc(NC(=S)N2CCN(c3ccc(Cl)c(Cl)c3)CC2)n1,"inconclusive: 37.3 µM [inhibitor, partial curve]"
14,Cc1ccnc(C(=S)N2CCN(c3cccc(C(F)(F)F)c3)CC2)c1,"inconclusive: 59.1 µM [inhibitor, single point]"
15,Cc1ccnc(NC(=S)NCCNc2cccc(C(F)(F)F)c2)c1,"inconclusive: 23.5 µM [inhibitor, full curve]"
16,COc1cccc(NC(=S)N2CCN(c3ncc(C(F)(F)F)cc3Cl)CC2)n1,"inconclusive: 2.96 µM [inhibitor, full curve]"
17,Cc1cc(C)nc(NC(=S)N2CCN(c3ccc(NS(C)(=O)=O)nn3)CC2)c1,"inconclusive: 2.96 µM [inhibitor, full curve]"
18,FC(F)(F)c1cccc(N2CCN(C(=S)Nc3ccncc3)CC2)c1,"inconclusive: 26.4 µM [inhibitor, partial curve]"
19,COc1cccc(NC(=S)N2CCN(c3ccccc3C(F)(F)F)CC2)n1,"inconclusive: 18.7 µM [inhibitor, partial curve]"
20,S=C(Nc1cc(Cl)ccn1)N1CCN(c2ccc(Cl)cc2Cl)CC1,"inconclusive: 29.6 µM [inhibitor, partial curve]"
